The list shows a part of the results.
How the values were obtained:
Assay in all cases: log2 fold change, soluble protein after heating vs DMSO (PISA); higher = thermal stabilisation; K562 lysate, 10 uM; active = over 0.2 and 3.5 SD of the protein, either way, in both replicates (recomputed)
erlotinib = compound: C#Cc1cccc(Nc2ncnc3cc(OCCOC)c(OCCOC)cc23)c1 [erlotinib]
Method in brief: (§1)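 Values give the log-two fold change in thermal stability against solvent controls, from duplicates. Crude K562 extract at 1 mg/mL protein, made by dounce homogenisation in PBS pH 7.4 with 1 mM MgCl2, was treated with 10 μM compound for 30 min. After 3 min heating across 48°C-58°C, aliquots were pooled, adjusted to 0.5% NP-40 at 4°C and centrifuged at 21,000xg for 90 min. The supernatant was measured by TMTpro 16plex LC-MS/MS with channel sums equalised.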

By UniProt entry, the sequences of proteins in these tests, tags left out. Where a name states a change or a piece, a line headed by the entry shows the natural chain unless it says otherwise.
UniProt Q15067: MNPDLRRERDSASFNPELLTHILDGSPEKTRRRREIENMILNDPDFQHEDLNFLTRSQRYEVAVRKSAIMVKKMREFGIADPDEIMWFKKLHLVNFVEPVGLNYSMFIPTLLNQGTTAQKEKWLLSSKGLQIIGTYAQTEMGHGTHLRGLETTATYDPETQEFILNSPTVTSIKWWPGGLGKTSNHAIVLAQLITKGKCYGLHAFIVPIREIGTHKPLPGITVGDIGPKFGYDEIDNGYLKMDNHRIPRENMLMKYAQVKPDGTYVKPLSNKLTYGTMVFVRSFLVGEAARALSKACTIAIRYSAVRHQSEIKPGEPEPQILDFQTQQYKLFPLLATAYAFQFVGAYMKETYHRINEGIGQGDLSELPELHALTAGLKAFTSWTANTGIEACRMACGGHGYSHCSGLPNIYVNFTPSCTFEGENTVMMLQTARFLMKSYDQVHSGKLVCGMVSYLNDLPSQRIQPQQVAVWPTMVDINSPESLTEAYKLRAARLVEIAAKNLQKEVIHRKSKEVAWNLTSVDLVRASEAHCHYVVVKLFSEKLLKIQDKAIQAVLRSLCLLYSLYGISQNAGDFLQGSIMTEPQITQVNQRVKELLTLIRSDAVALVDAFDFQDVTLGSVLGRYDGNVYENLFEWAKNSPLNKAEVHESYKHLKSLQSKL
UniProt O43572: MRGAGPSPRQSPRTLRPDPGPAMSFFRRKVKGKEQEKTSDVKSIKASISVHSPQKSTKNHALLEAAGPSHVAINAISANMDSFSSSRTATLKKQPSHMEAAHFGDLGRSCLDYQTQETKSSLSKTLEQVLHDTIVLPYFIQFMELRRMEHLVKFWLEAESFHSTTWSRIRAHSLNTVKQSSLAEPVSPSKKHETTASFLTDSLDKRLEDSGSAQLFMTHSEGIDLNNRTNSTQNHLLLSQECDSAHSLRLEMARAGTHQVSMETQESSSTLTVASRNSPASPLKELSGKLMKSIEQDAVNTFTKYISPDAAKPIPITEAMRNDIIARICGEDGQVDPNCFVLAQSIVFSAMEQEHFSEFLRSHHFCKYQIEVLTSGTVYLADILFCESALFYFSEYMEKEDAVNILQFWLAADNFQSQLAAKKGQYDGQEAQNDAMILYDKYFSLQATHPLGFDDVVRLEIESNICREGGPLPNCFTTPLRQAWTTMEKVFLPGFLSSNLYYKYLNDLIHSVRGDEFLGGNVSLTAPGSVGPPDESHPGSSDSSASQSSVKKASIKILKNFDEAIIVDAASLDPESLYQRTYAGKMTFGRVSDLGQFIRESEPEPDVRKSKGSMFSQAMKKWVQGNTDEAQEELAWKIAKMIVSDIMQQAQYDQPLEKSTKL
UniProt Q13705: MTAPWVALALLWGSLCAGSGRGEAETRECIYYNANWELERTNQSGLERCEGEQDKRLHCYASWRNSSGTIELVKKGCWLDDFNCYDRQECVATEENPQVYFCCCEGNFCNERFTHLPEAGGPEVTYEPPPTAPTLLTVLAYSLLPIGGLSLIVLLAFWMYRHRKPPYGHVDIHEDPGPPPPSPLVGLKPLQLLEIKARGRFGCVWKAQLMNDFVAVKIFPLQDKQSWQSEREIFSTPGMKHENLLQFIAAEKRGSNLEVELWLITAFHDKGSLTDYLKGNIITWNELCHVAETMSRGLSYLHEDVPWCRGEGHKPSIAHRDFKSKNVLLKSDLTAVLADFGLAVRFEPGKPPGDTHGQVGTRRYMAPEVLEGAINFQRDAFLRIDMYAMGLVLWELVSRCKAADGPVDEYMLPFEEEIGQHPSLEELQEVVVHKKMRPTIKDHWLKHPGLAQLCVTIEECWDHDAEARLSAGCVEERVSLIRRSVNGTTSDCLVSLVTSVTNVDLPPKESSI
UniProt Q8WV93: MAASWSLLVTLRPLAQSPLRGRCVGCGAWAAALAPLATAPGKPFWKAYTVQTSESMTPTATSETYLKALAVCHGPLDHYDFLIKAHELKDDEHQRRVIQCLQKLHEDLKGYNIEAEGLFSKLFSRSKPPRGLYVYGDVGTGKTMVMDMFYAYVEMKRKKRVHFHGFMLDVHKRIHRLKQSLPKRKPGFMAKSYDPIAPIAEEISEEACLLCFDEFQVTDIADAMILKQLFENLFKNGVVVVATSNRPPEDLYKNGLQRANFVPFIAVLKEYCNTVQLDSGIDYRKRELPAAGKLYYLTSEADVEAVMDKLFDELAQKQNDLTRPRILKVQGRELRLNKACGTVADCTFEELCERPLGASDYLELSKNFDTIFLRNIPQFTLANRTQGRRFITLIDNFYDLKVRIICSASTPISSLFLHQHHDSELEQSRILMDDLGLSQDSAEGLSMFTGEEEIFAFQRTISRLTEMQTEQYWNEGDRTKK
UniProt P20933: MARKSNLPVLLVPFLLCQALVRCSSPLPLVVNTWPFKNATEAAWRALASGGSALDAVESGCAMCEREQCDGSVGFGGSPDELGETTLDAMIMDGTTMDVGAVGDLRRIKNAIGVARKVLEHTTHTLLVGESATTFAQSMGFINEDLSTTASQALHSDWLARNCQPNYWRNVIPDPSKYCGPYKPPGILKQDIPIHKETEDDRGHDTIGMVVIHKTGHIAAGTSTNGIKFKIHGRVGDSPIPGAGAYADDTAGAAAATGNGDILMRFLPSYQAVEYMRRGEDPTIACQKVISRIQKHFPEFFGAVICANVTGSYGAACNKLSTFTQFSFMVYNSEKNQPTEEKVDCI
UniProt Q96A54: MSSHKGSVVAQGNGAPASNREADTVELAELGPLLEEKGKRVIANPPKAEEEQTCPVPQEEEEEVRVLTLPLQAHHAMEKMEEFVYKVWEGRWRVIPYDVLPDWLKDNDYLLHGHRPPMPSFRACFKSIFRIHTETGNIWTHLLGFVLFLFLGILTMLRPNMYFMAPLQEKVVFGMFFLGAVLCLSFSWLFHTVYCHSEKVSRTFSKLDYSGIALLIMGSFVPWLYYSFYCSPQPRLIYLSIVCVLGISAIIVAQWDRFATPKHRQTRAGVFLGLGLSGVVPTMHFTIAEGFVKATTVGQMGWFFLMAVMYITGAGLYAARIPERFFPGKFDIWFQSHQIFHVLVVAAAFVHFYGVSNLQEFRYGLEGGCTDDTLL
UniProt Q04828: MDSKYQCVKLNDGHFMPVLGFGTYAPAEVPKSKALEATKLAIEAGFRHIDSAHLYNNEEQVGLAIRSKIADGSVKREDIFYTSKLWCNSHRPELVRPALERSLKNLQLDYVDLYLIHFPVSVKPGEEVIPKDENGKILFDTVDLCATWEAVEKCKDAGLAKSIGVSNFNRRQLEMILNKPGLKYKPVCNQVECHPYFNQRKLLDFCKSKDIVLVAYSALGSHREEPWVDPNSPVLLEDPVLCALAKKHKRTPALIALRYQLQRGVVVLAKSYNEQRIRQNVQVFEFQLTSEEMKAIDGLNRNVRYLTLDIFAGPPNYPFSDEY
UniProt Q6ZN18: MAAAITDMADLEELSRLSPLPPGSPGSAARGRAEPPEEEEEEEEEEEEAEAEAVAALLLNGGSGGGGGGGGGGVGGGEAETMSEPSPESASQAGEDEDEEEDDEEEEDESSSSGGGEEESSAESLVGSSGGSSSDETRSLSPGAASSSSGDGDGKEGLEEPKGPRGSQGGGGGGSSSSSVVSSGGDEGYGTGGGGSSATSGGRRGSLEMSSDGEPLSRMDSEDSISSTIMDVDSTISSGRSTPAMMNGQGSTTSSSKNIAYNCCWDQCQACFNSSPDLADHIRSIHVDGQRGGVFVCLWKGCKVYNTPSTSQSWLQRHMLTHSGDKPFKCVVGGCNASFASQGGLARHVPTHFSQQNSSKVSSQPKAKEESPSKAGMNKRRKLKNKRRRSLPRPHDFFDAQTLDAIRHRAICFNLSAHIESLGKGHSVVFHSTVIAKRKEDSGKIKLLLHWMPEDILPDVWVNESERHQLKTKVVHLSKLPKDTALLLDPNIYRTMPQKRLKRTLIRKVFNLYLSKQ
UniProt Q9UPQ3: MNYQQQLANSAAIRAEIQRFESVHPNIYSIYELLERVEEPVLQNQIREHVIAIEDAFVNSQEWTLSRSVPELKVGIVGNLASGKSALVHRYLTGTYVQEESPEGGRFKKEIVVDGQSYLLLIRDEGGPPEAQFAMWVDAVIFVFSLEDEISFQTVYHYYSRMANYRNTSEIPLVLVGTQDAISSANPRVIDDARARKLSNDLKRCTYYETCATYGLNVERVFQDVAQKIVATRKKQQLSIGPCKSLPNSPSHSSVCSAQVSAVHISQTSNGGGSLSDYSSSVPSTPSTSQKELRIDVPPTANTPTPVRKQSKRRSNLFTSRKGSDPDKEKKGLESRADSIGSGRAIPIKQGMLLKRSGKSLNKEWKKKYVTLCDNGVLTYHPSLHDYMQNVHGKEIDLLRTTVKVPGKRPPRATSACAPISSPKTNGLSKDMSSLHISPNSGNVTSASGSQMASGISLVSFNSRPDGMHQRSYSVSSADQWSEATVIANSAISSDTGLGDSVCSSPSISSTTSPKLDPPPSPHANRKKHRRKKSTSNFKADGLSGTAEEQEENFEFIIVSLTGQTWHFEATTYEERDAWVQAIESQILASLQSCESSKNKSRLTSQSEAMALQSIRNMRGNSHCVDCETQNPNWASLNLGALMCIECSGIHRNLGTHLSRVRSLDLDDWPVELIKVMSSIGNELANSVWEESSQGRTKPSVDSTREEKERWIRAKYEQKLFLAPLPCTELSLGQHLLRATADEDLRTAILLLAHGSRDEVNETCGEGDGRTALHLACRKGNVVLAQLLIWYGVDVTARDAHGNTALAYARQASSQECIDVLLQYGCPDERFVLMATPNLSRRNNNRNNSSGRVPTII
UniProt P52594: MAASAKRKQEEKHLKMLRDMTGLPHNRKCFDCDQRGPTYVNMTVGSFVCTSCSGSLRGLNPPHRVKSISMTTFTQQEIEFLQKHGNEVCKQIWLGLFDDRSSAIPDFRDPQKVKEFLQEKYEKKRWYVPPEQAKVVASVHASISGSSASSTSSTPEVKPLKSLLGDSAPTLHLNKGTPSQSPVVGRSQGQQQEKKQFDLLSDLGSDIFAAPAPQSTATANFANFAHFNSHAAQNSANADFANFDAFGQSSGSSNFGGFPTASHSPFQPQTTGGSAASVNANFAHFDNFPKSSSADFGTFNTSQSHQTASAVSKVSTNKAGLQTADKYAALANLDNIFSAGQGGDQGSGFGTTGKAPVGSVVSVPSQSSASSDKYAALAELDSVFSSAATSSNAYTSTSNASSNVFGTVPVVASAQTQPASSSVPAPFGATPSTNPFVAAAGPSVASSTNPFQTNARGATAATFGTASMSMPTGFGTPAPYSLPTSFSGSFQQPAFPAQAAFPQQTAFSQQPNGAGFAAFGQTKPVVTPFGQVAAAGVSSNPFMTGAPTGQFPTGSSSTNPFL
UniProt P55008: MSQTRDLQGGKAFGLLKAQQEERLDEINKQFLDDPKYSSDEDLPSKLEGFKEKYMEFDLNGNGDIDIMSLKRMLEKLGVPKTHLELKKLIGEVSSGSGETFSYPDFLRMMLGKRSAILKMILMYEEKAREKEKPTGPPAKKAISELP
UniProt P14621: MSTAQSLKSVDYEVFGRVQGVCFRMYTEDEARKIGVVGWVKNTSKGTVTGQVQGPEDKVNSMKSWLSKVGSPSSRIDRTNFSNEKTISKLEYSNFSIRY
UniProt O15120: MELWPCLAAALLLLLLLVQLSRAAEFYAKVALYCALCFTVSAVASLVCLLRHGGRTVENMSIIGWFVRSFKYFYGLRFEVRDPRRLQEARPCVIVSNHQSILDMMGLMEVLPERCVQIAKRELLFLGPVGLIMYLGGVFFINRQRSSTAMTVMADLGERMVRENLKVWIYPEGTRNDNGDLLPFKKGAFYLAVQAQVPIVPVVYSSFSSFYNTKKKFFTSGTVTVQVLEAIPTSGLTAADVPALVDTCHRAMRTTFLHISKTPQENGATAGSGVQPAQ

[1] = compound: C/C(=N\NC(=O)C1=CC(=CC=C1)S(=O)(=O)N2CCOCC2)/C3=C(C=CC(=C3)Cl)O
Method in brief: as §1

[2] = compound: C1=CC(=CC=C1C2=NC3=C(N2)C=C(C=C3)C(=O)N)OC4=CC=C(C=C4)Cl
Method in brief: as §1

[3] = compound: C1=CC2=C(C=CC(=C2)/C=C\3/C(=O)NC(=NCC4=CC=CS4)S3)N=C1
Method in brief: as §1

[4] = compound: C1=CC2=NC=CN=C2C=C1/C=C/3\C(=O)NC(=O)S3
Method in brief: as §1

[5] = compound: C1=CC=C(C=C1)C2=NC(=C(N2)C3=CC=NC=C3)C4=CC(=C(C=C4)Cl)O
Method in brief: as §1

[6] = compound: C1=CC=C2C(=C1)C3=NNC4=CC=CC(=C43)C2=O
Method in brief: as §1

[7] = compound: C1CCN(C1)C(=O)NC2=CC=CC(=C2)NC3=NC=C(C(=N3)NCCC4=CN=CN4)Br
Method in brief: as §1

[8] = compound: C1CN(CCC1(CC2=CC=C(C=C2)Cl)N)C3=NC=NC4=C3C=CN4
Method in brief: as §1

IRAK-1-4 Inhibitor I = compound: C1COCCN1CCN2C3=CC=CC=C3N=C2NC(=O)C4=CC(=CC=C4)[N+](=O)[O-] [IRAK-1-4 Inhibitor I]
Method in brief: as §1

ibrutinib = compound: C=CC(=O)N1CCC[C@@H](n2nc(-c3ccc(Oc4ccccc4)cc3)c3c(N)ncnc32)C1 [ibrutinib]
Method in brief: as §1

[9] = compound: CC(=O)c1cnc2ccc(-c3cc(Cl)c(O)c(Cl)c3)nc2c1N[C@H]1CC[C@H](CN(C)C)CC1
Method in brief: as §1

ralimetinib = compound: CC(C)(C)Cn1c(N)nc2ccc(-c3[nH]c(C(C)(C)C)nc3-c3ccc(F)cc3)nc21 [ralimetinib]
Method in brief: as §1

[10] = compound: CC(C)(O)CC(=O)NCCn1ccc2ncnc(Nc3ccc(Oc4cccc(C(F)(F)F)c4)c(Cl)c3)c21
Method in brief: as §1

[11] = compound: CC(C)C1=C2N=C(C=C(N2N=C1)NCC3=CC=CC=C3)NCCCCCCN
Method in brief: as §1

[12] = compound: CC1=C(C(CC(=O)N1)C2=CC=C(C=C2)C(F)(F)F)C(=O)NC3=C(C=C4C(=C3)C=NN4)F
Method in brief: as §1

[13] = compound: CC1=C(C2=C(C=C1)C(=O)C3=CC=CC=C3N2CCCN)C
Method in brief: as §1

[14] = compound: CC1=C(C=C(C=C1)NC(=O)C2=CC(=CC=C2)C(C)(C)C#N)NC3=CC4=C(C=C3)N=CN(C4=O)C
Method in brief: as §1

[15] = compound: CC1=C(C=C(C=C1)NC(=O)C2=CC(=CC=C2)N(C)C)NC(=O)C3=CC=C(C=C3)O
Method in brief: as §1

[16] = compound: CC1=CC=C(C=C1)SC2=C3C=C(SC3=CN=C2)C(=O)N
Method in brief: as §1

Measured: log2 fold change

ACOX1 isoform 2 (UniProt Q15067)
inactive: erlotinib -0.01 | [1] -0.023 | [2] 0.007 | [3] 0.007 | [4] 0.01 | [5] 0.011 | [6] -0.017 | [7] -0.007 | [8] 0.024 | IRAK-1-4 Inhibitor I 0.081 | ibrutinib 0.036 | [9] 0.052 | ralimetinib 0.098 | [10] -0.044 | [11] -0.013 | [12] -0.016 | [13] -0.043 | [14] 0.001 | [15] -0.026 | [16] -0.024

ADAMTSL4 isoform 3 (UniProt Q6UY14)
inactive: erlotinib -0.096 | [2] 0.032 | [4] 0.021 | [5] 0.023 | IRAK-1-4 Inhibitor I -0.052 | ibrutinib -0.073 | [9] 0.021 | ralimetinib 0.012 | [10] -0.058 | [11] 0.069 | [12] -0.074 | [13] 0.041 | [14] -0.052 | [15] 0.022 | [16] -0.041

AKAP10 (UniProt O43572)
inactive: erlotinib -0.028 | [2] -0.077 | [4] -0.048 | [5] 0.032 | [7] -0.004 | [8] -0.127 | IRAK-1-4 Inhibitor I 0.012 | ibrutinib -0.054 | [9] 0.064 | ralimetinib 0 | [10] 0.033 | [11] 0.075 | [12] 0.125 | [13] 0.108 | [14] 0.008 | [15] 0 | [16] -0.035

ACVR2B (UniProt Q13705)
inactive: erlotinib -0.011 | [1] 0.127 | [2] 0.171 | [3] -0.228 | [6] -0.161 | [11] 0.099

Fetched one by one from above, two records:
AKAP10 (UniProt O43572)
inactive: erlotinib -0.028 | [2] -0.077 | [4] -0.048 | [5] 0.032 | [7] -0.004 | [8] -0.127 | IRAK-1-4 Inhibitor I 0.012 | ibrutinib -0.054 | [9] 0.064 | ralimetinib 0 | [10] 0.033 | [11] 0.075 | [12] 0.125 | [13] 0.108 | [14] 0.008 | [15] 0 | [16] -0.035

ACOX1 isoform 2 (UniProt Q15067)
inactive: erlotinib -0.01 | [1] -0.023 | [2] 0.007 | [3] 0.007 | [4] 0.01 | [5] 0.011 | [6] -0.017 | [7] -0.007 | [8] 0.024 | IRAK-1-4 Inhibitor I 0.081 | ibrutinib 0.036 | [9] 0.052 | ralimetinib 0.098 | [10] -0.044 | [11] -0.013 | [12] -0.016 | [13] -0.043 | [14] 0.001 | [15] -0.026 | [16] -0.024

Later entries:

AFG1L (UniProt Q8WV93)
inactive: erlotinib -0.042 | [2] 0.069 | [5] 0.101 | [7] 0.257 | [8] -0.179 | IRAK-1-4 Inhibitor I -0.044 | [9] 0.043 | ralimetinib -0.033 | [10] 0.081 | [11] 0.01 | [12] -0.062 | [13] -0.03 | [14] 0.094 | [15] 0.064 | [16] -0.006

AGA (UniProt P20933)
inactive: erlotinib 0.067 | [1] -0.006 | [2] 0.011 | [3] -0.003 | [5] 0.164 | [6] 0.069 | [7] -0.047 | [8] 0.096 | IRAK-1-4 Inhibitor I 0.004 | [9] -0.165 | ralimetinib -0.06 | [10] -0.053 | [11] -0.024 | [14] -0.026 | [15] -0.05 | [16] -0.127

ADIPOR1 (UniProt Q96A54)
inactive: erlotinib 0.04 | [1] -0.025 | [2] 0.062 | [3] 0.04 | [4] -0.129 | [5] -0.051 | [6] 0.013 | [7] -0.029 | [8] 0.11 | IRAK-1-4 Inhibitor I 0 | ibrutinib 0.001 | ralimetinib -0.006 | [10] -0.034 | [11] -0.196 | [12] 0.03 | [13] -0.037 | [14] 0.05 | [15] 0.036

AKR1C1 (UniProt Q04828)
inactive: erlotinib 0.082 | [1] 0.067 | [2] -0.031 | [3] -0.113 | [5] 0.05 | [6] -0.112 | [7] 0.018 | [8] -0.001 | IRAK-1-4 Inhibitor I -0.062 | [9] -0.038 | ralimetinib -0.116 | [10] 0.02 | [11] 0.065 | [13] -0.21 | [15] 0.001 | [16] -0.012

AEBP2 (UniProt Q6ZN18)
inactive: erlotinib -0.142 | [2] 0.045 | [4] 0.06 | [5] -0.052 | IRAK-1-4 Inhibitor I -0.041 | ibrutinib 0.201 | [9] -0.061 | ralimetinib 0.051 | [10] 0.043 | [11] -0.014 | [13] -0.105 | [14] 0.107 | [15] -0.052 | [16] -0.092

AGAP1 (UniProt Q9UPQ3)
inactive: erlotinib -0.015 | [1] -0.08 | [2] 0.002 | [3] -0.074 | [4] -0.018 | [5] 0.02 | [6] 0.113 | IRAK-1-4 Inhibitor I -0.014 | ibrutinib -0.003 | [9] -0.005 | ralimetinib 0.032 | [10] 0.044 | [11] -0.011 | [12] 0.011 | [13] 0.17 | [14] 0.058 | [15] 0.004 | [16] -0.003

AGFG1 isoform 4 (UniProt P52594)
inactive: erlotinib -0.019 | [1] -0.034 | [2] 0.028 | [3] -0.033 | [4] -0.013 | [5] -0.05 | [6] 0.054 | [7] -0.041 | [8] -0.009 | IRAK-1-4 Inhibitor I 0.02 | ibrutinib 0.018 | [9] 0.006 | ralimetinib -0.035 | [10] -0.035 | [11] 0.007 | [12] -0.004 | [13] 0.013 | [14] 0.027 | [15] -0.021 | [16] -0.02

AIF1 (UniProt P55008)
inactive: erlotinib -0.06 | [1] 0.106 | [2] -0.378 | [3] 0.055 | [5] -0.243 | [6] 0.08 | IRAK-1-4 Inhibitor I -0.058 | [9] 0.062 | ralimetinib -0.097 | [10] -0.05 | [11] -0.186 | [12] 0.029 | [13] 0.119 | [14] 0.056 | [15] -0.033 | [16] 0.004

ACYP2 (UniProt P14621)
inactive: erlotinib -0.057 | [1] 0.256 | [2] 0.007 | [3] -0.176 | [4] 0.002 | [5] -0.049 | [6] -0.185 | IRAK-1-4 Inhibitor I -0.011 | ibrutinib 0.086 | [9] 0.004 | ralimetinib 0.026 | [10] -0.018 | [11] 0.044 | [12] 0.047 | [14] -0.036 | [15] 0.025 | [16] 0.04

AGPAT2 (UniProt O15120)
inactive: erlotinib -0.032 | [1] -0.064 | [2] 0.013 | [3] 0.245 | [5] -0.114 | [6] 0.024 | [7] -0.038 | [8] 0.069 | IRAK-1-4 Inhibitor I -0.027 | ralimetinib 0.1 | [10] -0.071 | [11] 0.046 | [12] 0.03 | [14] -0.064 | [15] 0.013
